# Laboratory results: publication PMC12702058
# Sequences of proteins named here, by UniProt entry; tags and fusion partners are left off. Residues count along the entry.
# UniProt O95817: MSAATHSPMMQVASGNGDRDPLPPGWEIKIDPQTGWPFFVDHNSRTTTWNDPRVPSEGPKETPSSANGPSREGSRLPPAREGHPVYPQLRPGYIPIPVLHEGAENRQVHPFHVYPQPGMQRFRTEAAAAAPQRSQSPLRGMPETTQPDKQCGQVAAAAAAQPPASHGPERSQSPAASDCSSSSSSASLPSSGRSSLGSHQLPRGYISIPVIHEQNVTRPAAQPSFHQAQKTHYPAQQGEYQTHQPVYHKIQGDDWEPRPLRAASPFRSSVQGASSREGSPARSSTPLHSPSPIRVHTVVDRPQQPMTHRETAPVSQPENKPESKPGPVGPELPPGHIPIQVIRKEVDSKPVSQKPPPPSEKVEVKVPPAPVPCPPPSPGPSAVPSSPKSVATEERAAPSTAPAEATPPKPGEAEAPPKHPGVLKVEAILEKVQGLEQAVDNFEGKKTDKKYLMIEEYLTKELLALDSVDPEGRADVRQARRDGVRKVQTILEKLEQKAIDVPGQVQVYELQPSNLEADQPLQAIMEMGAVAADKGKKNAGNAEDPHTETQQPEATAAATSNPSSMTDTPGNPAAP
# UniProt Q04721, residues 26-2471: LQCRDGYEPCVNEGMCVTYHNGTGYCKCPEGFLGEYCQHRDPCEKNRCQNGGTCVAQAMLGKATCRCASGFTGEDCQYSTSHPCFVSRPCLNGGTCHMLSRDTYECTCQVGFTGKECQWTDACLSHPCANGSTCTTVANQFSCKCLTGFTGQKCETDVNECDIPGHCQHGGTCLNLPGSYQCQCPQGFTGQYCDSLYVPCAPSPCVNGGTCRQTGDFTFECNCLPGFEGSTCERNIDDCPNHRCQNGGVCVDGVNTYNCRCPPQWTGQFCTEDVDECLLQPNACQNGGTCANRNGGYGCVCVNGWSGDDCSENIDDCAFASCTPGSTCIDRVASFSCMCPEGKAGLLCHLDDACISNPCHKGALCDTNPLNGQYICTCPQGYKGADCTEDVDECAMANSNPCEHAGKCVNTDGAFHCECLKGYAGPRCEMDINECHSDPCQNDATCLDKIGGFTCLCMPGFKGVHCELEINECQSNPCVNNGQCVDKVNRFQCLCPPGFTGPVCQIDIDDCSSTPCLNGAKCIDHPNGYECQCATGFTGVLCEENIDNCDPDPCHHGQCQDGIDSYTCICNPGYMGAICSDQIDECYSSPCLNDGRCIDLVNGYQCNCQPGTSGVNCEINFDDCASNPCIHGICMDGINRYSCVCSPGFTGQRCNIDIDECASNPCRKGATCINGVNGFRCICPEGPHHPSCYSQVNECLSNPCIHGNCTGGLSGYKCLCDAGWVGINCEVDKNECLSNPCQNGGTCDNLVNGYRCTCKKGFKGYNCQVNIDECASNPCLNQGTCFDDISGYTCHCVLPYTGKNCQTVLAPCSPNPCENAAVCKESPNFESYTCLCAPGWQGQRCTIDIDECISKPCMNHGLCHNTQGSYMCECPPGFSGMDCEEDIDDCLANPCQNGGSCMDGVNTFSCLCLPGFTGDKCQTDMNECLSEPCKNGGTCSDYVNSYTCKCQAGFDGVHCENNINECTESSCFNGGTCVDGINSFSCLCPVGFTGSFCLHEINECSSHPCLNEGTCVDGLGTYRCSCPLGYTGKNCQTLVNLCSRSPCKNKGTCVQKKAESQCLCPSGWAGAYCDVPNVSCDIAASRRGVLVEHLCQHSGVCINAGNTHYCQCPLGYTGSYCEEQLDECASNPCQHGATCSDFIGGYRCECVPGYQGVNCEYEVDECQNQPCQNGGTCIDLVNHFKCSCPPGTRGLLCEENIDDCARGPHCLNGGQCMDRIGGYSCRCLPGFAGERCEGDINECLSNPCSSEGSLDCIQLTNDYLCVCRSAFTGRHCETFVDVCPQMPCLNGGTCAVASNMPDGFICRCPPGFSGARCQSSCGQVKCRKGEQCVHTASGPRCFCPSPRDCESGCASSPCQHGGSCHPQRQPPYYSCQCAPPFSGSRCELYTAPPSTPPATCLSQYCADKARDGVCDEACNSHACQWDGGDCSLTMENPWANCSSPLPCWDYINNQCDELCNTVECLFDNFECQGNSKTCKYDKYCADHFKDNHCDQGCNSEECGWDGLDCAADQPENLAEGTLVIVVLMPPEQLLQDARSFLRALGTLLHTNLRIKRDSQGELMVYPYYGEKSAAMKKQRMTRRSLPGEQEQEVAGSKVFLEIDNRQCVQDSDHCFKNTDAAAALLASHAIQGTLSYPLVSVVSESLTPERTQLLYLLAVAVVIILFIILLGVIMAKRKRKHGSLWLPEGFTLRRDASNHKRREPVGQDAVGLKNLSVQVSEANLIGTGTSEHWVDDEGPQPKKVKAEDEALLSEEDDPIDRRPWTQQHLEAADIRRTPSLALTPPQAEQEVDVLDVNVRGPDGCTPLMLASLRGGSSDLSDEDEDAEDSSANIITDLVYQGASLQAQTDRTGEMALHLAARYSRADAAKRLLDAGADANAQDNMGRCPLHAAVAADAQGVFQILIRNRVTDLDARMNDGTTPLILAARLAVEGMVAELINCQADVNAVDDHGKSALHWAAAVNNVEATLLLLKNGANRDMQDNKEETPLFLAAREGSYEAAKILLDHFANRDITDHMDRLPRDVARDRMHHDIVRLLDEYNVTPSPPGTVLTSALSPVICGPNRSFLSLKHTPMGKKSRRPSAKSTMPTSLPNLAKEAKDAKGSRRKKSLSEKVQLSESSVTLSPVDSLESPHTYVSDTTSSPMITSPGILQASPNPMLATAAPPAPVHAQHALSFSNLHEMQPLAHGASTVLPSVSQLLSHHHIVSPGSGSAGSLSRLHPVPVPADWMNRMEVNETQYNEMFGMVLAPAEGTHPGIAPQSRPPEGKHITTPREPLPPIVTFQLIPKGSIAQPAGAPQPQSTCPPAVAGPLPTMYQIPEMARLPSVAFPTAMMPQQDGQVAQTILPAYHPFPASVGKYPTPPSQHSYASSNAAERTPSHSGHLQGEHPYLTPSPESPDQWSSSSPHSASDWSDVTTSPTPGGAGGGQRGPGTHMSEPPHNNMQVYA
# UniProt P10586, residues 30-1907: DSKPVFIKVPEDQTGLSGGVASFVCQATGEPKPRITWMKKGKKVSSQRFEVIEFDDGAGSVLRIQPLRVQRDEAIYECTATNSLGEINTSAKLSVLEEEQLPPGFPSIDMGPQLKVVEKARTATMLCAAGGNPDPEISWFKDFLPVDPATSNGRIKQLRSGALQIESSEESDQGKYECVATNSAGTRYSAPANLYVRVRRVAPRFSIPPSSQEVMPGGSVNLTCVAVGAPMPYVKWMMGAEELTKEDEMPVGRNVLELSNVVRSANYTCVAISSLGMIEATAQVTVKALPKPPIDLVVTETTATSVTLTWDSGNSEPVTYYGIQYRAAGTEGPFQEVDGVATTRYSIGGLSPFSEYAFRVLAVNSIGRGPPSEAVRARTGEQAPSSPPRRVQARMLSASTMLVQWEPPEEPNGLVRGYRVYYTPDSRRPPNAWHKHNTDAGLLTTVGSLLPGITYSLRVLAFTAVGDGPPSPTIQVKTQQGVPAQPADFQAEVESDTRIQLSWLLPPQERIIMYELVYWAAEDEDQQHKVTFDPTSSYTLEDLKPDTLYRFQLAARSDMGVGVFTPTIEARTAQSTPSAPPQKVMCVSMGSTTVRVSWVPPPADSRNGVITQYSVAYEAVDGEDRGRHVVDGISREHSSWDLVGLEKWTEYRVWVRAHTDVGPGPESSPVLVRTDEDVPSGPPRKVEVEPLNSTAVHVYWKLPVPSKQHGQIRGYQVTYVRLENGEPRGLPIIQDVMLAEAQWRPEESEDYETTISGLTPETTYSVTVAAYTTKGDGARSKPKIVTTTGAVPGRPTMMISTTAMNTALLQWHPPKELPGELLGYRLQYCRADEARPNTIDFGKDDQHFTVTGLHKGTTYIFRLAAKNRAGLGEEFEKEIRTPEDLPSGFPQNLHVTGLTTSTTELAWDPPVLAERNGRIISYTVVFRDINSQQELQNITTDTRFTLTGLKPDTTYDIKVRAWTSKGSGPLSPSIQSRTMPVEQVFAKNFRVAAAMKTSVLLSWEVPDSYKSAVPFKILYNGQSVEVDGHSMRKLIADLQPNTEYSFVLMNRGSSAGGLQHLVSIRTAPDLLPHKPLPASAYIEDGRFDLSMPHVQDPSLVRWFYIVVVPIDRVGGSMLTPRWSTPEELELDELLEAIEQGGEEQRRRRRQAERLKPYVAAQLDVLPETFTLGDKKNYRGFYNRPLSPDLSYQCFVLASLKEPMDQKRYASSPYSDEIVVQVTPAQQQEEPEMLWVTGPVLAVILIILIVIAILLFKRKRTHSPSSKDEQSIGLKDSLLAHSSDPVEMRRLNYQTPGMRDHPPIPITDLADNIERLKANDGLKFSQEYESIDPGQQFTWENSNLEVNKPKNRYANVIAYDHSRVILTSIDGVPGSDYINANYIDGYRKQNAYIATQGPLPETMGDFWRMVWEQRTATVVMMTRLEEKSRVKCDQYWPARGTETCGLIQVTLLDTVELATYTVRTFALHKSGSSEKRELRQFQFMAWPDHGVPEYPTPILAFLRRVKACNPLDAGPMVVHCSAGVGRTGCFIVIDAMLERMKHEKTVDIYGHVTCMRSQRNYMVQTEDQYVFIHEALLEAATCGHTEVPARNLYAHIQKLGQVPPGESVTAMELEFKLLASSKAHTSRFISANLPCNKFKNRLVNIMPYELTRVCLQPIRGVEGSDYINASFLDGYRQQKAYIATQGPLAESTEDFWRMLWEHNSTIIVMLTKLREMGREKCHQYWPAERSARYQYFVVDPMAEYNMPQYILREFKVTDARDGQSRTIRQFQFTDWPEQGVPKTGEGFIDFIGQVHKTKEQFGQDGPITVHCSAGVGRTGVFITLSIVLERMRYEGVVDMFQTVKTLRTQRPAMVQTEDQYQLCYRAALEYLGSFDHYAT
# UniProt P05387: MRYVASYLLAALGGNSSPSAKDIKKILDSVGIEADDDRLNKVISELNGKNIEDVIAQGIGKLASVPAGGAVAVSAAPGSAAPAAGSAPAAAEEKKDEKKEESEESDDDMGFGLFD
# UniProt Q01628: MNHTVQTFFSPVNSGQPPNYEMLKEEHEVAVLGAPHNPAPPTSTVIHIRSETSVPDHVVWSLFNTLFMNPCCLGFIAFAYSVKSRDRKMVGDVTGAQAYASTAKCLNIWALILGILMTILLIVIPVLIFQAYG
# T1: FLAG-MARCH8 (Membrane-Associated RING-CH 8) (human) (UniProt Q5T0T0)
# T1 sequence: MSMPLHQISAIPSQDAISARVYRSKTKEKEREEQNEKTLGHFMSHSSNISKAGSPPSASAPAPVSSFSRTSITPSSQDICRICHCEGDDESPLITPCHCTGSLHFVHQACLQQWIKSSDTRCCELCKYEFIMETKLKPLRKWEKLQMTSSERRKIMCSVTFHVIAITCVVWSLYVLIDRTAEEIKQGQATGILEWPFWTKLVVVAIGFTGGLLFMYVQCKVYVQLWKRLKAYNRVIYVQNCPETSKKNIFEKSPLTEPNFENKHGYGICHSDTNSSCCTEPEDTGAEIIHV
# Biological target: T1, FLAG-MARCH8 (Membrane-Associated RING-CH 8) (human)
# Experiment: affinity purification with mass spectrometry; HeLa cells transfected with FLAG-MARCH8 or empty vector, treated with chloroquine; lysate in IP lysis buffer on anti-FLAG beads, 4 °C, 2 h; LC-MS/MS; proteins of the negative control excluded
row,Molecule,binding
1,BAG3 (from UniProt O95817 1-575),binds
2,NOTCH2 (from UniProt Q04721 26-2471) (receptor),binds
3,PTPRF (from UniProt P10586 30-1907) (receptor),binds
4,RLA2 (from UniProt P05387 1-115),binds
5,"interferon-induced transmembrane protein 3 (IFITM3), endogenous (from UniProt Q01628 1-133)",binds
6,"PGM1 (enzyme, UniProt P36871 1-562) MVKIVTVKTQAYQDQKPGTSGLRKRVKVFQSSANYAENFIQSIISTVEPAQRQEATLVVGGDGRFYMKEAIQLIARIAAANGIGRLVIGQNGILSTPAVSCIIRKIKAIGGIILTASHNPGGPNGDFGIKFNISNGGPAPEAITDKIFQISKTIEEYAVCPDLKVDLGVLGKQQFDLENKFKPFTVEIVDSVEAYATMLRSIFDFSALKELLSGPNRLKIRIDAMHGVVGPYVKKILCEELGAPANSAVNCVPLEDFGGHHPDPNLTYAADLVETMKSGEHDFGAAFDGDGDRNMILGKHGFFVNPSDSVAVIAANIFSIPYFQQTGVRGFARSMPTSGALDRVASATKIALYETPTGWKFFGNLMDASKLSLCGEESFGTGSDHIREKDGLWAVLAWLSILATRKQSVEDILKDHWQKYGRNFFTRYDYEEVEAEGANKMMKDLEALMFDRSFVGKQFSANDKVYTVEKADNFEYSDPVDGSISRNQGLRLIFTDGSRIVFRLSGTGSAGATIRLYIDSYEKDVAKINQDPQVMLAPLISIALKVSQLQERTGRTAPTVIT",binds
7,"SLC39A14 (protein, UniProt Q15043 31-492) SSLGAPAISAASFLQDLIHRYGEGDSLTLQQLKALLNHLDVGVGRGNVTQHVQGHRNLSTCFSSGDLFTAHNFSEQSRIGSSELQEFCPTILQQLDSRACTSENQENEENEQTEEGRPSAVEVWGYGLLCVTVISLCSLLGASVVPFMKKTFYKRLLLYFIALAIGTLYSNALFQLIPEAFGFNPLEDYYVSKSAVVFGGFYLFFFTEKILKILLKQKNEHHHGHSHYASESLPSKKDQEEGVMEKLQNGDLDHMIPQHCSSELDGKAPMVDEKVIVGSLSVQDLQASQSACYWLKGVRYSDIGTLAWMITLSDGLHNFIDGLAIGASFTVSVFQGISTSVAILCEEFPHELGDFVILLNAGMSIQQALFFNFLSACCCYLGLAFGILAGSHFSANWIFALAGGMFLYISLADMFPEMNEVCQEDERKGSILIPFIIQNLGLLTGFTIMVVLTMYSGQIQIG",binds
8,"RCN1 (protein, UniProt Q15293 30-331) KPTVRKERVVRPDSELGERPPEDNQSFQYDHEAFLGKEDSKTFDQLTPDESKERLGKIVDRIDNDGDGFVTTEELKTWIKRVQKRYIFDNVAKVWKDYDRDKDDKISWEEYKQATYGYYLGNPAEFHDSSDHHTFKKMLPRDERRFKAADLNGDLTATREEFTAFLHPEEFEHMKEIVVLETLEDIDKNGDGFVDQDEYIADMFSHEENGPEPDWVLSEREQFNEFRDLNKDGKLDKDEIRHWILPQDYDHAQAEARHLVYESDKNKDEKLTKEEILENWNMFVGSQATNYGEDLTKNHDEL",binds

# Results are given in words; binding and its absence hold for the method and conditions named. Binding seen in cells or lysates may run through a third protein. These calls come from enrichment with a bait or labelling near it, and not all partners need be listed. Tags and fused reporters may be left off the sequences shown.
